{
  "source": "paper PMC7696940",
  "about": "“Effects of Rationally Designed Physico-Chemical Variants of the Peptide PuroA on Biocidal Activity towards Bacterial and Mammalian Cells” (International Journal of Molecular Sciences, 2020)",
  "note": "Where no end group is shown, it is not given here.",
  "data": [
    {"system": "HeLa cells", "format": "cell-based, human", "conditions": "ratio of IC50 NIH-3T3 to IC50 HeLa; bounds calculated with 250 μg/mL", "protocol": "Cytotoxicity to human cervical carcinoma HeLa cells and mouse fibroblastic NIH-3T3 cells was determined using the MTT assay as per Scudiero et al. with minor modifications. The cells were maintained in Dulbecco’s Modified Eagle Medium (DMEM) with 10% foetal bovine serum (FBS) and 1% penicillin G in a humidified incubator (Heraeus Hera Cell incubator) at 37 °C with 5% CO2. They were seeded in 96-well microtiter plates at 1 × 10^4 cells/well and allowed to adhere for 24 h in the incubator. The medium was removed, and adherent cells were washed with PBS. Fresh media containing serially diluted peptides in PBS (final concentrations 4 to 250 µg/mL) were added and the cells incubated for 24 h. Cells without peptides were used as negative controls. Following incubations, the medium was removed, and adherent cells were washed with PBS. 150 µL of MTT (diluted to 0.33 mg/mL in DMEM) and the plates incubated for 3 h. The precipitated formazan was dissolved in 100 µL of DMSO and its absorbance measured at 570 nm. Cell viability was determined as: (OD570 nm peptide treated cells/(OD570 nm untreated cells) × 100. Positive cytotoxicity was defined as peptide concentration that causes 50% growth inhibition in a cell line (IC50). All tests were carried out in triplicate.", "values": [
      {"compound": "CC(C)[C@H](NC(=O)[C@@H]1CCCN1C(=O)[C@@H](N)Cc1ccccc1)C(=O)N[C@H](C(=O)N[C@@H](Cc1c[nH]c2ccccc12)C(=O)N[C@@H](CCCNC(=N)N)C(=O)N[C@@H](Cc1c[nH]c2ccccc12)C(=O)N[C@@H](Cc1c[nH]c2ccccc12)C(=O)N[C@@H](CCCCN)C(=O)N[C@@H](Cc1c[nH]c2ccccc12)C(=O)N[C@@H](Cc1c[nH]c2ccccc12)C(=O)N[C@@H](CCCCN)C(=O)NCC(N)=O)[C@@H](C)O", "note": "[PuroA]", "Therapeutic Index (TI)": "<1"},
      {"compound": "RKRWWRWWKWWKR-NH2 [Peptide P1]", "Therapeutic Index (TI)": 7.8},
      {"compound": "RRRRWRWWRWWRR-NH2 [Peptide R8]", "Therapeutic Index (TI)": ">1"},
      {"compound": "RWWKWW-NH2 [Peptide R6]", "Therapeutic Index (TI)": "<1"},
      {"compound": "RWWKWWK-NH2 [Peptide R7]", "Therapeutic Index (TI)": "<1"}
    ]}
  ]
}
